Laboratory results: PubChem BioAssay AID1508597 (Cure First, 2020)
Assay: 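Genes whose silencing sensitises or protects ovarian cancer cells against rucaparib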 (primary screen). Cell system: human ovarian carcinoma lines grown from tumours: OCI-P5x (papillary serous) and OCI-C5x (clear cell). Reagents: siRNA pool against human genes, 1.25 pmol siRNA per well. Duration: 72 h or 96 h, depending on the cell culture. Challenge: rucaparib 20 µM (about IC30) or vehicle, present until read-out. Rucaparib or vehicle: Rucaparib. Cell line: OCI-P5x (serous). Detection: 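Luminescent ATP-based viability assay read 72 or 96 h after transfection, depending on culture, given as normalised percent viability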. Direction: viability, normalised: higher = more viable cells remaining. Call rule: 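a well counts as a hit if its normalised viability is under 80 percent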. Meaning of the calls: active = viability under 80%; inactive = viability 80% or more.
Shown is a random part of the about 2,100 reagents, in one setting of the screen. 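Calls flag viability under 80% in either arm, not effects specific to rucaparib; the reference for percent is not stated.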 Unmarked entries are inactive. A reagent listed more than once was tested more than once; the source does not tell the runs apart. No sequences are given here. Not given: the 100% reference.

DDB1, technical replicate 1 showed viability, normalised (%) = 74.8 (active).
With DDB1, technical replicate 1, the values are viability, normalised (%) = 58.7 (active).
DDB1, technical replicate 2 showed viability, normalised (%) = 76 (active).
For DDB1, technical replicate 2, the entry reads viability, normalised (%) = 55.8 (active).
DDB1, technical replicate 3 scored viability, normalised (%) = 59.1 (active).
DDB1, technical replicate 3 scored viability, normalised (%) = 59.9 (active).
With DAPK3, technical replicate 1, the entry reads viability, normalised (%) = 47.4 (active).
With DAPK3, technical replicate 1 the deposit lists viability, normalised (%) = 85.
DAPK3, technical replicate 2 showed viability, normalised (%) = 65.4 (active).
For DAPK3, technical replicate 2 the deposit lists viability, normalised (%) = 83.5.
DAPK3, technical replicate 3 showed viability, normalised (%) = 45.6 (active).
DAPK3, technical replicate 3 showed viability, normalised (%) = 92.4.

Laid out differently: entries from further up.
target	technical replicate	viability, normalised (%)
DDB1	3	59.9 (active)
DAPK3	1	47.4 (active)
DAPK3	1	85

Further reagents follow:
FANCL, technical replicate 1 scored viability, normalised (%) = 61.4 (active).
For FANCL, technical replicate 2 the deposit lists viability, normalised (%) = 68.3 (active).
FANCL, technical replicate 3 scored viability, normalised (%) = 56.4 (active).
With IPO8, technical replicate 1, the values are viability, normalised (%) = 94.1.
With IPO8, technical replicate 2, the entry reads viability, normalised (%) = 73.8 (active).
IPO8, technical replicate 3 gave viability, normalised (%) = 59.3 (active).
With TLE1, technical replicate 1 the deposit lists viability, normalised (%) = 63.5 (active).
With TLE1, technical replicate 2, the values are viability, normalised (%) = 54.9 (active).
With TLE1, technical replicate 3, the values are viability, normalised (%) = 62 (active).
